{"source": "PubChem BioAssay AID1224830 – NIAID – 2016", "screen": "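Regulators of TLR4 signalling towards TNF-alpha in macrophage-like cells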 (primary screen)", "system": "human THP-1 monocytic leukaemia cells, TNF dual-luciferase reporter clone, PMA-differentiated to macrophage-like cells", "reagent": "siRNA pool against human genes, 50 nM", "timing": "LPS for 4 h, given about 3 days after siRNA transfection", "challenge": "bacterial LPS (TLR4 ligand), 10 ng/ml", "measurement": "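Ratio of firefly to renilla light, scaled to the plate median and expressed as a robust z-score per replicate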", "reading the numbers": "TNF reporter robust z-score: higher = stronger TNF reporter response to LPS", "call rule": "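a well is active when its z-score exceeds 2.8 or falls below -1.5; control wells carry no call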", "note": "This is a random part of about 18,000 reagents tested. About 2,900 of all reagents (16%) were called active. 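Calls are made per well; low scores hint the gene aids the LPS response, high scores that it dampens it.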 Repeated entries: four replicate wells of each siRNA pool. No sequences are given here."}
{"gene": "LTB4R2", "TNF reporter robust z-score": -0.74, "outcome": "inactive"}
{"gene": "LTB4R2", "TNF reporter robust z-score": -0.81, "outcome": "inactive"}
{"gene": "LTB4R2", "TNF reporter robust z-score": -0.64, "outcome": "inactive"}
{"gene": "LTB4R2", "TNF reporter robust z-score": 0.42, "outcome": "inactive"}
{"gene": "NFE4", "TNF reporter robust z-score": 0.03, "outcome": "inactive"}
{"gene": "NFE4", "TNF reporter robust z-score": -1.17, "outcome": "inactive"}
{"gene": "NFE4", "TNF reporter robust z-score": -0.54, "outcome": "inactive"}
{"gene": "NFE4", "TNF reporter robust z-score": -0.76, "outcome": "inactive"}
{"gene": "LIAT1", "TNF reporter robust z-score": -1.7, "outcome": "active"}
{"gene": "LIAT1", "TNF reporter robust z-score": -1.65, "outcome": "active"}
{"gene": "OR4A47", "TNF reporter robust z-score": 1.12, "outcome": "inactive"}
{"gene": "OR4A47", "TNF reporter robust z-score": 1.35, "outcome": "inactive"}
{"gene": "OR4A47", "TNF reporter robust z-score": 0.46, "outcome": "inactive"}
{"gene": "OR4A47", "TNF reporter robust z-score": 1.08, "outcome": "inactive"}
{"gene": "GCG", "TNF reporter robust z-score": 0.61, "outcome": "inactive"}
{"gene": "GCG", "TNF reporter robust z-score": 4.04, "outcome": "active"}
{"gene": "GCG", "TNF reporter robust z-score": -0.96, "outcome": "inactive"}
{"gene": "GCG", "TNF reporter robust z-score": 0.32, "outcome": "inactive"}
{"gene": "GPR15", "TNF reporter robust z-score": -1.57, "outcome": "active"}
{"gene": "GPR15", "TNF reporter robust z-score": -0.8, "outcome": "inactive"}
{"gene": "GPR15", "TNF reporter robust z-score": -0.69, "outcome": "inactive"}
{"gene": "GPR15", "TNF reporter robust z-score": -1.45, "outcome": "inactive"}
{"gene": "HDDC3", "TNF reporter robust z-score": -0.31, "outcome": "inactive"}
{"gene": "HDDC3", "TNF reporter robust z-score": 0.16, "outcome": "inactive"}
{"gene": "HDDC3", "TNF reporter robust z-score": -0.4, "outcome": "inactive"}
{"gene": "HDDC3", "TNF reporter robust z-score": 0.7, "outcome": "inactive"}
{"gene": "CPA3", "TNF reporter robust z-score": 1.08, "outcome": "inactive"}
{"gene": "CPA3", "TNF reporter robust z-score": 3.3, "outcome": "active"}
{"gene": "CPA3", "TNF reporter robust z-score": 7.47, "outcome": "active"}
{"gene": "CPA3", "TNF reporter robust z-score": 1.37, "outcome": "inactive"}
{"gene": "PROM1", "TNF reporter robust z-score": 0.65, "outcome": "inactive"}
{"gene": "PROM1", "TNF reporter robust z-score": 3.24, "outcome": "active"}
{"gene": "PROM1", "TNF reporter robust z-score": 1.9, "outcome": "inactive"}
{"gene": "PROM1", "TNF reporter robust z-score": 1.31, "outcome": "inactive"}
{"gene": "RGN", "TNF reporter robust z-score": -0.32, "outcome": "inactive"}
{"gene": "RGN", "TNF reporter robust z-score": -0.78, "outcome": "inactive"}
{"gene": "RGN", "TNF reporter robust z-score": -0.86, "outcome": "inactive"}
{"gene": "RGN", "TNF reporter robust z-score": -0.5, "outcome": "inactive"}
{"gene": "FLT3", "TNF reporter robust z-score": -1.05, "outcome": "inactive"}
{"gene": "FLT3", "TNF reporter robust z-score": -0.39, "outcome": "inactive"}
{"gene": "FLT3", "TNF reporter robust z-score": -0.18, "outcome": "inactive"}
{"gene": "FLT3", "TNF reporter robust z-score": -0.99, "outcome": "inactive"}
{"gene": "FGA", "TNF reporter robust z-score": -1.03, "outcome": "inactive"}
{"gene": "FGA", "TNF reporter robust z-score": -1.38, "outcome": "inactive"}
{"gene": "FGA", "TNF reporter robust z-score": -0.56, "outcome": "inactive"}
{"gene": "FGA", "TNF reporter robust z-score": -0.68, "outcome": "inactive"}
{"gene": "ISLR", "TNF reporter robust z-score": 0.31, "outcome": "inactive"}
{"gene": "ISLR", "TNF reporter robust z-score": 1.05, "outcome": "inactive"}
{"gene": "ISLR", "TNF reporter robust z-score": 1.01, "outcome": "inactive"}
{"gene": "ISLR", "TNF reporter robust z-score": 0.69, "outcome": "inactive"}
